Source: the supplement of paper PMC8728848
The other results are listed elsewhere or left out.

What was measured:
Assay in all cases: glycan array binding signal (z-score within array); higher = stronger binding
Settings in all cases: glycan notation: IUPAC condensed, linker removed
Gal6S(b1-4)Glc6S = biological target: Gal6S(b1-4)Glc6S
How it was run: (§1)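 The binding signal is a Z-score computed within each array. Data were drawn from 3228 arrays in the Consortium for Functional Glycomics database, restricted to those with a known protein sequence. Scores were averaged over arrays of the same protein sequence at different concentrations or buffers, and over linkers, and negative values can be taken as non-binding.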

Gal6S(b1-4)GlcNAc = biological target: Gal6S(b1-4)GlcNAc
How it was run: as §1

Gal6S(b1-4)GlcNAc6S = biological target: Gal6S(b1-4)GlcNAc6S
How it was run: as §1

GalNAc(a1-3)Gal = biological target: GalNAc(a1-3)Gal
How it was run: as §1

GalNAc(a1-3)GalNAc = biological target: GalNAc(a1-3)GalNAc
How it was run: as §1

GalNAc(b1-3)Gal = biological target: GalNAc(b1-3)Gal
How it was run: as §1

[1] = biological target: GalNAc(b1-3)Gal(a1-4)Gal(b1-4)GlcNAc
How it was run: as §1

GalNAc(b1-3)GalNAc = biological target: GalNAc(b1-3)GalNAc
How it was run: as §1

GalNAc(b1-4)GlcNAc = biological target: GalNAc(b1-4)GlcNAc
How it was run: as §1

Glc(a1-4)Glc = biological target: Glc(a1-4)Glc
How it was run: as §1

Glc(a1-6)Glc(a1-6)Glc = biological target: Glc(a1-6)Glc(a1-6)Glc
How it was run: as §1

Glc(b1-4)Glc = biological target: Glc(b1-4)Glc
How it was run: as §1

Glc(b1-6)Glc = biological target: Glc(b1-6)Glc
How it was run: as §1

GlcA(b1-3)Gal = biological target: GlcA(b1-3)Gal
How it was run: as §1

GlcA(b1-3)GlcNAc = biological target: GlcA(b1-3)GlcNAc
How it was run: as §1

GlcA(b1-6)Gal = biological target: GlcA(b1-6)Gal
How it was run: as §1

[2] = biological target: GlcNAc(a1-3)Gal(b1-4)GlcNAc
How it was run: as §1

[3] = biological target: GlcNAc(a1-6)Gal(b1-4)GlcNAc
How it was run: as §1

[4] = biological target: GlcNAc(b1-2)Gal(b1-3)GalNAc
How it was run: as §1

[5] = biological target: GlcNAc(b1-2)Man(a1-3)[GlcNAc(b1-2)Man(a1-6)]Man(b1-4)GlcNAc(b1-4)GlcNAc
How it was run: as §1

GlcNAc(b1-3)Gal = biological target: GlcNAc(b1-3)Gal
How it was run: as §1

[6] = biological target: GlcNAc(b1-3)Gal(b1-3)GalNAc
How it was run: as §1

GlcNAc(b1-3)Gal(b1-4)Glc = biological target: GlcNAc(b1-3)Gal(b1-4)Glc
How it was run: as §1

[7] = biological target: GlcNAc(b1-3)Gal(b1-4)GlcNAc
How it was run: as §1

[8] = biological target: GlcNAc(b1-3)Gal(b1-4)GlcNAc(b1-3)Gal(b1-4)GlcNAc
How it was run: as §1

GlcNAc(b1-3)GalNAc = biological target: GlcNAc(b1-3)GalNAc
How it was run: as §1

GlcNAc(b1-3)Man = biological target: GlcNAc(b1-3)Man
How it was run: as §1

[9] = biological target: GlcNAc(b1-3)[GlcNAc(b1-4)][GlcNAc(b1-6)]GlcNAc
How it was run: as §1

[10] = biological target: GlcNAc(b1-3)[GlcNAc(b1-6)]Gal(b1-4)GlcNAc
How it was run: as §1

[11] = biological target: GlcNAc(b1-3)[GlcNAc(b1-6)]GalNAc
How it was run: as §1

[12] = biological target: GlcNAc(b1-4)Gal(b1-4)GlcNAc
How it was run: as §1

GlcNAc(b1-4)GlcNAc = biological target: GlcNAc(b1-4)GlcNAc
How it was run: as §1

[13] = biological target: GlcNAc(b1-4)GlcNAc(b1-4)GlcNAc
How it was run: as §1

[14] = biological target: GlcNAc(b1-4)GlcNAc(b1-4)GlcNAc(b1-4)GlcNAc(b1-4)GlcNAc
How it was run: as §1

[15] = biological target: GlcNAc(b1-4)GlcNAc(b1-4)GlcNAc(b1-4)GlcNAc(b1-4)GlcNAc(b1-4)GlcNAc
How it was run: as §1

[16] = biological target: GlcNAc(b1-4)[GlcNAc(b1-6)]GalNAc
How it was run: as §1

[17] = biological target: GlcNAc(b1-6)Gal(b1-4)GlcNAc
How it was run: as §1

GlcNAc(b1-6)GalNAc = biological target: GlcNAc(b1-6)GalNAc
How it was run: as §1

B1: RfpC (Mycobacterium tuberculosum), O07747 (protein)
chain: MHHHHHHSSGRENLYFQGHMASKSAMAAGLVTASMSLSTAVAHAGPSPNWDAVAQCESGGNWAANTGNGKYGGLQFKPATWAAFGGVGNPAAASREQQIAVANRVLAEQGLDAWPTCGAASGLPIALWSKPAQGIKGS
glycan array binding signal (z-score) (Gal6S(b1-4)Glc6S): 0.121 | glycan array binding signal (z-score) (Gal6S(b1-4)GlcNAc): -1.18 | glycan array binding signal (z-score) (Gal6S(b1-4)GlcNAc6S): 1.16 | glycan array binding signal (z-score) (GalNAc(a1-3)Gal): 0.898 | glycan array binding signal (z-score) (GalNAc(a1-3)GalNAc): -0.5 | glycan array binding signal (z-score) (GalNAc(b1-3)Gal): 0.853 | glycan array binding signal (z-score) [1]: 3.74 | glycan array binding signal (z-score) (GalNAc(b1-3)GalNAc): 0.625 | glycan array binding signal (z-score) (GalNAc(b1-4)GlcNAc): -0.564 | glycan array binding signal (z-score) (Glc(a1-4)Glc): 0.301 | glycan array binding signal (z-score) (Glc(a1-6)Glc(a1-6)Glc): 2.41 | glycan array binding signal (z-score) (Glc(b1-4)Glc): -0.789 | glycan array binding signal (z-score) (Glc(b1-6)Glc): -0.717 | glycan array binding signal (z-score) (GlcA(b1-3)Gal): -0.934 | glycan array binding signal (z-score) (GlcA(b1-3)GlcNAc): 1.57 | glycan array binding signal (z-score) (GlcA(b1-6)Gal): -0.959 | glycan array binding signal (z-score) [2]: -0.298 | glycan array binding signal (z-score) [3]: -0.432 | glycan array binding signal (z-score) [4]: 0.268 | glycan array binding signal (z-score) [5]: 0.128 | glycan array binding signal (z-score) (GlcNAc(b1-3)Gal): -0.187 | glycan array binding signal (z-score) [6]: 1.06 | glycan array binding signal (z-score) (GlcNAc(b1-3)Gal(b1-4)Glc): 1.79 | glycan array binding signal (z-score) [7]: -0.123 | glycan array binding signal (z-score) [8]: -0.618 | glycan array binding signal (z-score) (GlcNAc(b1-3)GalNAc): -0.705 | glycan array binding signal (z-score) (GlcNAc(b1-3)Man): -0.648 | glycan array binding signal (z-score) [9]: 0.738 | glycan array binding signal (z-score) [10]: -0.031 | glycan array binding signal (z-score) [11]: -1 | glycan array binding signal (z-score) [12]: -0.792 | glycan array binding signal (z-score) (GlcNAc(b1-4)GlcNAc): -0.077 | glycan array binding signal (z-score) [13]: -0.885 | glycan array binding signal (z-score) [14]: 0.708 | glycan array binding signal (z-score) [15]: -1.11 | glycan array binding signal (z-score) [16]: -0.277 | glycan array binding signal (z-score) [17]: -0.235 | glycan array binding signal (z-score) (GlcNAc(b1-6)GalNAc): 0.185
